Consider 4 substances from EP0556962A1 (RICHTER GEDEON VEGYESZETI GYAR R.T., priority 1992, dated 1993).

This series is described as follows: general procedure: solution-phase peptide synthesis; pentafluorophenyl active esters (Boc-/Z-amino acid-OPfp), triethylamine.

Some peptides are written in HELM: one residue between dots, names in brackets for other building blocks, links after the first $.

Consider “Boc-D-Trp-Phe-D-Trp-Leu ψ-(CH₂NH)Leu-NH₂”, for which the step yield (coupling step) was 90%.

Consider Boc-Phe-D-Trp-Leu ψ(CH₂NH)Leu-NH₂, for which the step yield (coupling step) is given as 82%. Consider “H-D-Trp-Phe-D-Trp-Leu ψ(CH₂NH)Leu-NH₂·2HCl”, for which the step yield (late stage modification step, 2HCl) turned out to be 92%. Turning to “PEPTIDE1{[pHOPA].[dW].F.[dW].[LeuPsiCH2NHLeu].[am]}$$$$V2.0”, the step yield (coupling step) was 85%.
